In BigSolDB 2.1:

Compound: Nc1ccc(S(N)(=O)=O)cc1
- solubility (mole fraction) (in acetone, 278.15 K): 0.0832
- solubility (mole fraction) (in acetone, 283.15 K): 0.0857
- solubility (mole fraction) (in acetone, 288.15 K): 0.0884
- solubility (mole fraction) (in acetone, 293.15 K): 0.0912
- solubility (mole fraction) (in acetone, 298.15 K): 0.0942
- solubility (mole fraction) (in acetone, 303.15 K): 0.0975
- solubility (mole fraction) (in acetone, 308.15 K): 0.101
- solubility (mole fraction) (in acetone, 313.15 K): 0.105
- solubility (mole fraction) (in acetone, 318.15 K): 0.11
- solubility (mole fraction) (in benzene, 278.15 K): 0.00067
- solubility (mole fraction) (in benzene, 283.15 K): 0.000815
- solubility (mole fraction) (in benzene, 288.15 K): 0.00098
- solubility (mole fraction) (in benzene, 293.15 K): 0.00117
- solubility (mole fraction) (in benzene, 298.15 K): 0.00138
- solubility (mole fraction) (in benzene, 303.15 K): 0.00161
- solubility (mole fraction) (in benzene, 308.15 K): 0.00186
- solubility (mole fraction) (in benzene, 313.15 K): 0.00215
- solubility (mole fraction) (in benzene, 318.15 K): 0.00246
- solubility (mole fraction) (in ethanol, 278.15 K): 0.00547
- solubility (mole fraction) (in ethanol, 283.15 K): 0.00656
- solubility (mole fraction) (in ethanol, 288.15 K): 0.0079
- solubility (mole fraction) (in ethanol, 293.15 K): 0.00953
- solubility (mole fraction) (in ethanol, 298.15 K): 0.0115
- solubility (mole fraction) (in ethanol, 303.15 K): 0.0139
- solubility (mole fraction) (in ethanol, 308.15 K): 0.0169
- solubility (mole fraction) (in ethanol, 313.15 K): 0.0205
- solubility (mole fraction) (in ethanol, 318.15 K): 0.0249
- solubility (mole fraction) (in ethyl acetate, 278.15 K): 9e-06
- solubility (mole fraction) (in ethyl acetate, 283.15 K): 1e-05
- solubility (mole fraction) (in ethyl acetate, 288.15 K): 1.3e-05
- solubility (mole fraction) (in ethyl acetate, 293.15 K): 1.5e-05
- solubility (mole fraction) (in ethyl acetate, 298.15 K): 1.9e-05
- solubility (mole fraction) (in ethyl acetate, 303.15 K): 2.6e-05
- solubility (mole fraction) (in ethyl acetate, 308.15 K): 3.3e-05
- solubility (mole fraction) (in ethyl acetate, 313.15 K): 4.4e-05
- solubility (mole fraction) (in ethyl acetate, 318.15 K): 6e-05
- solubility (mole fraction) (in isopropanol, 278.15 K): 0.000202
- solubility (mole fraction) (in isopropanol, 283.15 K): 0.000364
- solubility (mole fraction) (in isopropanol, 288.15 K): 0.000589
- solubility (mole fraction) (in isopropanol, 293.15 K): 0.00102
- solubility (mole fraction) (in isopropanol, 298.15 K): 0.00175
- solubility (mole fraction) (in isopropanol, 303.15 K): 0.00232
- solubility (mole fraction) (in isopropanol, 308.15 K): 0.00323
- solubility (mole fraction) (in isopropanol, 313.15 K): 0.0042
- solubility (mole fraction) (in isopropanol, 318.15 K): 0.00585
- solubility (mole fraction) (in methanol, 278.15 K): 0.0112
- solubility (mole fraction) (in methanol, 283.15 K): 0.0136
- solubility (mole fraction) (in methanol, 288.15 K): 0.0165
- solubility (mole fraction) (in methanol, 293.15 K): 0.0199
- solubility (mole fraction) (in methanol, 298.15 K): 0.0238
- solubility (mole fraction) (in methanol, 303.15 K): 0.0286
- solubility (mole fraction) (in methanol, 308.15 K): 0.0343
- solubility (mole fraction) (in methanol, 313.15 K): 0.0408
- solubility (mole fraction) (in methanol, 318.15 K): 0.0486
- solubility (mole fraction) (in n-butanol, 278.15 K): 0.0012
- solubility (mole fraction) (in n-butanol, 283.15 K): 0.00134
- solubility (mole fraction) (in n-butanol, 288.15 K): 0.00148
- solubility (mole fraction) (in n-butanol, 293.15 K): 0.00168
- solubility (mole fraction) (in n-butanol, 298.15 K): 0.00196
- solubility (mole fraction) (in n-butanol, 303.15 K): 0.00227
- solubility (mole fraction) (in n-butanol, 308.15 K): 0.00258
- solubility (mole fraction) (in n-butanol, 313.15 K): 0.00304
- solubility (mole fraction) (in n-butanol, 318.15 K): 0.00357
- solubility (mole fraction) (in n-octanol, 278.15 K): 0.000314
- solubility (mole fraction) (in n-octanol, 283.15 K): 0.000352
- solubility (mole fraction) (in n-octanol, 288.15 K): 0.000399
- solubility (mole fraction) (in n-octanol, 293.15 K): 0.000454
- solubility (mole fraction) (in n-octanol, 298.15 K): 0.000522
- solubility (mole fraction) (in n-octanol, 303.15 K): 0.000605
- solubility (mole fraction) (in n-octanol, 308.15 K): 0.000705
- solubility (mole fraction) (in n-octanol, 313.15 K): 0.000828
- solubility (mole fraction) (in n-octanol, 318.15 K): 0.000973
- solubility (mole fraction) (in n-propanol, 278.15 K): 0.000982
- solubility (mole fraction) (in n-propanol, 283.15 K): 0.00129
- solubility (mole fraction) (in n-propanol, 288.15 K): 0.00175
- solubility (mole fraction) (in n-propanol, 293.15 K): 0.0023
- solubility (mole fraction) (in n-propanol, 298.15 K): 0.00299
- solubility (mole fraction) (in n-propanol, 303.15 K): 0.00365
- solubility (mole fraction) (in n-propanol, 308.15 K): 0.00444
- solubility (mole fraction) (in n-propanol, 313.15 K): 0.00536
- solubility (mole fraction) (in n-propanol, 318.15 K): 0.00615
- solubility (mole fraction) (in sec-butanol, 278.15 K): 9.6e-05
- solubility (mole fraction) (in sec-butanol, 283.15 K): 0.000252
- solubility (mole fraction) (in sec-butanol, 288.15 K): 0.000377
- solubility (mole fraction) (in sec-butanol, 293.15 K): 0.000721
- solubility (mole fraction) (in sec-butanol, 298.15 K): 0.00094
- solubility (mole fraction) (in sec-butanol, 303.15 K): 0.00132
- solubility (mole fraction) (in sec-butanol, 308.15 K): 0.00169
- solubility (mole fraction) (in sec-butanol, 313.15 K): 0.00215
- solubility (mole fraction) (in sec-butanol, 318.15 K): 0.00277
- solubility (mole fraction) (in toluene, 278.15 K): 4e-06
- solubility (mole fraction) (in toluene, 283.15 K): 6e-06
- solubility (mole fraction) (in toluene, 288.15 K): 8e-06
- solubility (mole fraction) (in toluene, 293.15 K): 1.1e-05
- solubility (mole fraction) (in toluene, 298.15 K): 1.4e-05
- solubility (mole fraction) (in toluene, 303.15 K): 1.7e-05
- solubility (mole fraction) (in toluene, 308.15 K): 2.1e-05
- solubility (mole fraction) (in toluene, 313.15 K): 2.5e-05
- solubility (mole fraction) (in toluene, 318.15 K): 3e-05
- solubility (mole fraction) (in water, 278.15 K): 0.000314
- solubility (mole fraction) (in water, 283.15 K): 0.000379
- solubility (mole fraction) (in water, 288.15 K): 0.000495
- solubility (mole fraction) (in water, 293.15 K): 0.000636
- solubility (mole fraction) (in water, 298.15 K): 0.000813
- solubility (mole fraction) (in water, 303.15 K): 0.00106
- solubility (mole fraction) (in water, 308.15 K): 0.00134
- solubility (mole fraction) (in water, 313.15 K): 0.00172
- solubility (mole fraction) (in water, 318.15 K): 0.00216
